The subject of this assay is A549. The assay can be described thus: Antiproliferative against human A549 cells assessed as viable cells pretreated with MS023 for 24 hrs followed by compound addition at 10 uM measured after for 24 hrs relative to control. The following applies: A549, 24 h, read-out: Activity.

Turning to `Cc1ccc(C(=O)NCCCCCC(=O)Nc2ccccc2N)cc1`, the viability at 10 µM stood at 54.2%.

The record behind these values is ChEMBL document CHEMBL5712922, “Synergistic effects of type I PRMT and PARP inhibitors against non-small cell lung cancer cells” (Clin Epigenetics, 2021).
